Patent US20260234276A1
Results are given in words; binding and its absence hold for the method and conditions named. Some entries that bind do so weakly or less than the wild type.

Chains of the proteins cited; added tags and fusions are not shown. Lines headed by an entry give the natural chain unless they say otherwise; changes in a name come on top.
UniProt P51685: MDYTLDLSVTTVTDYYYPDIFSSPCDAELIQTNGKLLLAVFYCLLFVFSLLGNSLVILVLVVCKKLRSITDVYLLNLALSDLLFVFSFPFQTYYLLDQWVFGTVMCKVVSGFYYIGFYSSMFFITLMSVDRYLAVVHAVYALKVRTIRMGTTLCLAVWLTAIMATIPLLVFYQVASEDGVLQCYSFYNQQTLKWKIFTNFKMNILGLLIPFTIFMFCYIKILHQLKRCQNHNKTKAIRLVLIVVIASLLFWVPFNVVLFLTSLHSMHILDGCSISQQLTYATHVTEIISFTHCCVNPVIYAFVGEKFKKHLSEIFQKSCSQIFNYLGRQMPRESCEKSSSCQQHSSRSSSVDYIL

Assays:
pm3 (human) = test: ELISA on coated peptide [cont.]
pm6 (human) = test: ELISA on coated peptide [cont.]
pm8 (human) = test: ELISA on coated peptide [cont.]
pm5 (human) = test: ELISA on coated peptide [cont.]
human CCR8 (human) [1] = molecular target: human CCR8 (human) (UniProt P51685); test: flow cytometry, hCCR8 transfected CHO cells against wild-type CHO cells
human CCR8 (human) [2] = molecular target: human CCR8 (human) (UniProt P51685); test: competition flow cytometry on hCCR8 transfected CHO cells; blocked ligand CCL1-AF647 [cont.]
human CCR8 (human) [3] = molecular target: human CCR8 (human) (UniProt P51685); test: flow cytometry, hCCR8 transfected CHOK1 cells versus wild-type CHO

Measured: binding

B1: 3-52 (antibody, V domains shown)
VH: QVQLQQPGSELVRPGASVKLSCKASGYTFTSYWMHWVKQRPGQGLEWIGNIWPGSASTNYDEKFKNKATLTVDTSSSTAYMQLSSLTSEDSAVYYCIRGGKGAMDYWSQGTSVTVSS
VL: DVVMTQIPLSLPVSLGDQASISCRSSQSLENSYGNTYLNWYLQKPGQSPQLLIYRVSNRFSGVLDRFSGSGSGTDFTLKISRVEAEDLGVYFCLQVTHVPPTFGAGTKLELK
binds: all assays above
